Results as given in EP1348714B1 (COUNCIL OF SCIENTIFIC AND INDUSTRIAL RESEARCH, priority 2002, dated 2003).
HELM strings list residues between dots; [ac] is acetyl, [am] amide, other brackets name non-standard units.

What was measured:
[1] = general procedure: Fmoc solid-phase peptide synthesis; 4-alkoxybenzylalcohol resin; Rink amide resin; DIC, HOBt, DCC, BOP or PyBOP; DCC/HOBt in solution phase; conditions: late stage modification step, diacetate
[2] = peptide synthesis; conditions: late stage modification step, diacetate

With PEPTIDE1{A.G.G.D.[Sar].K}$$$$V2.0 as the substance, how does the “final HPLC purity” value [1] read?
Its value is 99%.

What about the step yield [2] of the same substance?
Its step yield is 65%.
